Laboratory results reported in PubChem BioAssay AID493014 (National Center for Advancing Translational Sciences (NCATS), 2011).
In all, about 340,000 compounds went through this assay and about 170 (0.05%) were called active. This list was built around the results that the source calls inconclusive (neither active nor inactive); the mix of calls is not that of the screen. Calls come from the whole dose curve; as a rule, active = well fitted inhibition curve with a large enough effect in the signal ratio, with a control signal flat (not every such curve was filed as active); inconclusive = small, poorly fitted or top-dose-only effect, or effect the other way, or a change in a side signal; inactive = flat fitted curve, though single readings scatter; the % refers to the signal ratio. Where the call is inconclusive, the potency comes from a doubtful curve fit.

assay: qHTS Assay to Find Inhibitors of Chronic Active B-Cell Receptor Signaling; conditions: ABC-DLBCL IkBa-CBG/CBR reporter, luminescence ratio (green luciferase fused to IkBa over red control in TMD8 lymphoma cells), 4 h; activity change, negative = inhibition: at 46.1 µM (top of the series);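 for activity change, negative = inhibition: plate controls were basal doxycycline-induced cells for no effect and cells given 10 µM MG132 for full effect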
How it was run: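 TMD8 ABC-DLBCL cells carrying doxycycline-inducible green luciferase fused to IkappaBalpha plus unfused red luciferase were exposed to compounds (up to 46 uM) for 4 hrs at 37C. Activity came from the overlap-corrected green/red luminescence ratio.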
Potency is the fitted concentration of half-maximal effect.

Row | Compound | activity change, negative = inhibition | Potency
1 | Cc1nc(-c2ccccc2)cn2c1nc1ccccc12 | inconclusive: 7.65% | 
2 | COc1cccc(C2=NOC(C(=O)Nc3ccc4c(c3)OCO4)C2)c1OC (stereo not given) |  | inconclusive: 11.2 µM [falling, partial curve]
3 | COc1ccc(S(=O)(=O)NCc2ccncc2)cc1NC(=O)c1ccc(Cl)cc1 | inactive | 
4 | COCCCNc1ncnc2c1cnn2-c1ccc(F)cc1 | inconclusive: 1.3% | 
5 | Cn1cccc1C(=O)C(=O)Nc1ccccc1 | inconclusive: 496% | 
6 | COc1ccc(N=C2S/C(=C\c3ccc(N4CCOCC4)o3)C(=O)N2CCc2c[nH]c3ccccc23)cc1 |  | inconclusive: 3.16 µM [falling, full curve]
7 | CCCc1c(NC(=O)Nc2ccc(Cl)cc2Cl)cnn1-c1ccccc1 | inactive | 
8 | C/C(=N\NC(N)=S)C1(C)CCCCC1 |  | inconclusive: 18.4 µM [falling, partial curve, poor fit]
9 | O=C(NCCC1CCCCN1S(=O)(=O)c1ccccc1)C(=O)NCc1cccnc1 (stereo not given) | inactive | 
10 | C/C(=N\NC(=O)COc1ccccc1F)c1cc2ccccc2o1 | inconclusive: -4.15% | 
11 | COc1cc(-c2nnc(CSc3nc4ccccc4s3)o2)cc(OC)c1OC | inconclusive: 5.06% | 
12 | Cc1[nH]nc(Nc2ccc(C(C)C)cc2)c1[N+](=O)[O-] | inconclusive: 14.7% | 
13 | CCn1c(=O)c(C(=O)Nc2ncccc2C)c(O)c2ccccc21 | inconclusive: -3.76% | 
14 | O=C(Nc1ccccc1N1CCOCC1)c1cc2ccccc2o1 | inactive | 
15 | COc1ccc(NC(=O)CC2C(=O)N(c3ccc(OC)cc3)C(=S)N2NC(=O)c2cccc(F)c2)cc1 (stereo not given) | inconclusive: 4.33% | 
16 | Nc1c(C(=O)NCCN2CCOCC2)c2nc3ccccc3nc2n1CCc1ccccc1 | inconclusive: 9.74% | 
17 | O=c1c2ccccc2[nH]c(=S)n1C1CCCCC1 | inconclusive: 0.292% | 
18 | CCCn1c(COc2ccc(C(=O)O)cc2)nc2ccccc21 | inconclusive: 3.8% | 
19 | O=S(=O)(NC1CCCC1)c1cccc(-c2nnc(-c3ccccc3)o2)c1 | inconclusive: -15.3% | 
20 | O=C(Oc1cccc(NC(=O)c2ccco2)c1)c1ccc(Br)c(S(=O)(=O)N2CCCCC2)c1 |  | inconclusive: 20.6 µM [falling, partial curve]
21 | Cc1ccc(Cl)cc1N1CCN(C(=O)Cc2ccc(-n3c(=O)[nH]c4ccsc4c3=O)cc2)CC1 | inactive | 
22 | Cc1ccc(OC(=O)c2cccc(S(=O)(=O)N(C)C)c2)c(-n2nc3ccccc3n2)c1 | inconclusive: 18% | 
23 | COc1ccc(NC(=O)COCc2cc(-c3cccs3)on2)cc1 | inconclusive: 3.04% | 
24 | CCOc1ccc(C(C(=O)NC2CCCC2)N(C(=O)c2snc(C(N)=O)c2N)c2cccc(O)c2)cc1 (stereo not given) | inconclusive: 2.34% | 
25 | Cc1ccc(C(=O)CSc2nc3ccccc3c(=O)n2N)o1 | inconclusive: -0.471% | 

Row | Compound | activity change, negative = inhibition | Potency
26 | CN(C)CCCOc1ccc2c(c1)Sc1ccccc1CC2=O |  | inconclusive: 20.6 µM [falling, single point]
27 | Cc1ccc(C(=O)Nc2ccc3nc(C)sc3c2)s1 |  | inconclusive: 29.1 µM [falling, single point]
28 | CC(C)c1ccc(C2(C)NC(=O)N(C(C)C(=O)Nc3ccc(N4CCOCC4)cc3)C2=O)cc1 (stereo not given) | inconclusive: -16.2% | 
29 | Cc1ccc(C)c(OCCn2cc(C(=O)O)c3ccccc32)c1 |  | inconclusive: 10 µM [falling, partial curve]
30 | O=C(Nc1ccc(Cl)cn1)c1ccc2nccnc2c1 | inconclusive: -16.4% | 
31 | Cc1[nH]c(=O)[nH]c(=O)c1S(=O)(=O)Nc1ccc(F)cc1Cl | inactive | 
32 | O=C1CC(C(=O)Nc2ccccc2)S/C(=N\N=C\c2ccco2)N1 (stereo not given) | inconclusive: 2.42% | 
33 | COc1ccc(/C=N/OC(=O)Nc2ccccc2OC)cc1 |  | inconclusive: 31.6 µM [falling, single point]
34 | CCC1(CC)Nc2ccccc2C(=O)N1c1ccc(NC(C)=O)cc1 |  | inconclusive: 17.8 µM [falling, single point]
35 | CCC(C)(C)C1CCC2(CC1)NC(=O)N(CC(=O)Nc1nc(-c3ccc(C)cc3)cs1)C2=O (stereo not given) |  | inconclusive: 1.46 µM [rising, full curve, poor fit]
36 | O=c1[nH]c(CN2CCN(Cc3ccc4c(c3)OCO4)CC2)nc2ccccc12 |  | inconclusive: 9.2 µM [falling, single point]
37 | O=C(NCc1ccccc1Cl)c1ccc2c(c1)OCO2 |  | inconclusive: 12.6 µM [falling, partial curve, poor fit]
38 | O=C(Nc1ccc2c(c1)OCO2)C1CCN(Cc2cnn(-c3ccccc3)c2-n2cccc2)CC1 | inconclusive: -0.35% | 
39 | Clc1ccc(OCc2cc(-c3ccccc3)no2)c(Cl)c1 |  | inconclusive: 16.4 µM [falling, partial curve]
40 | O=C(N/N=C/c1ccc(OC(=O)c2cccs2)cc1)c1cccc(F)c1 |  | inconclusive: 16.4 µM [falling, partial curve]
41 | Cc1ccc(N2C(=O)C(Cl)=C(NCCO)C2=O)c(C)c1 | inconclusive: 5.25% | 
42 | CCN=C1SC(CC(=O)NC(C)C)C(=O)N1CC (stereo not given) |  | inconclusive: 0.0164 µM [falling, full curve, poor fit]
43 | CC(=O)[C@@]1(O)[C@H](C)CC2C3CC=C4CC(OP(=O)(O)O)CC[C@]4(C)C3CC[C@@]21C (stereo not given in full) | inconclusive: -0.818% | 
44 | CC(C)NC(=O)CSc1nnc(-c2ccc(F)cc2)c2ccccc12 |  | inconclusive: 35.5 µM [falling, single point]
45 | CCO[C@@H]1OC(C(=O)N2CCOCC2)=C[C@H](c2ccccc2)[C@H]1CCCO | inactive | 
46 | COc1ccccc1/C=N/NC(=O)c1cc2c(OC)c(OC)ccc2[nH]1 | inconclusive: -20.3% | 
47 | CSc1nc2c(c(=O)n1C)SC(C)C2 (stereo not given) | inconclusive: 3.31% | 
48 | COC(=O)c1cc2c(ccn2-c2ccc(F)cc2)n1Cc1cccc(OC)c1 | inconclusive: 1.58% | 
49 | Cc1cc(NC(=O)c2sc(Nc3ccc(F)cc3)nc2N)no1 | inconclusive: 6.83% | 
50 | O=C(c1ccco1)N1CCN(C(=O)c2cccc3c2C(=O)N(Cc2cccnc2)C3)CC1 | inconclusive: -15.5% | 

A draw from above in order of molecular weight, smallest number first.
Row | Compound | activity change, negative = inhibition | Potency
31 | Cc1[nH]c(=O)[nH]c(=O)c1S(=O)(=O)Nc1ccc(F)cc1Cl | inactive | 
32 | O=C1CC(C(=O)Nc2ccccc2)S/C(=N\N=C\c2ccco2)N1 (stereo not given) | inconclusive: 2.42% | 
45 | CCO[C@@H]1OC(C(=O)N2CCOCC2)=C[C@H](c2ccccc2)[C@H]1CCCO | inactive | 
